According to PubChem BioAssay AID504834 (National Center for Advancing Translational Sciences (NCATS), 2011):
“And” between values parts separate entries of the source, which are not always exact repeats. Equal values may be shown once. The campaign covered roughly 320,000 compounds. About 22,000 (6.9%) were called active. Inconclusive means that the source gave no clear call. Such entries were picked first, then a sample of the others. The call rests on the fitted dose curve; in most records, active means well fitted inhibition curve with a large enough effect; inconclusive means small, poorly fitted or top-dose-only effect, or another doubt; inactive means no such curve, though single readings can be large or run the other way. Potencies beside an inconclusive call are fits to weak or partial responses and may not hold up.

Experiment: Primary qHTS for delayed death inhibitors of the malarial parasite plastid, 96 hour incubation
Conditions: P. falciparum luciferase reporter growth; series mostly up to 28.7 µM; activity change, negative = inhibition: at the top concentration
Method in brief: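 Cell-based qHTS: luciferase-tagged P. falciparum in erythrocytes (2% hematocrit, 0.05% parasitemia final) incubated with compounds for 96 hours, 37 C, 5% CO2; luciferase detection reagent then added and luminescence measured.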
On the % scale 0 is the no-effect control and ±100 the full control effect; potency means the concentration at half of the fitted maximal effect.

SMILES	Potency	activity change, negative = inhibition
CCOc1ccc(N(C(=O)c2ccc(S(=O)(=O)N3CCCC3)cc2)C2C=CS(=O)(=O)C2)cc1 (stereo not drawn)	inconclusive: 13.1 µM [inhibitor, single point]	
COCCNC(=S)N1CCN(C/C=C/c2ccccc2)CC1	inconclusive: 0.522 µM [inhibitor, full curve, poor fit]	
COc1ccc(OC)c(-c2csc(NC(=O)C3=COCCO3)n2)c1		inactive: 12%
O=C(O)c1cccc(N2CCCC2)c1	active: 9.28 µM	
CC(C)NC(=S)N1CCN(C/C=C/c2ccccc2)CC1	inconclusive: 2.33 µM [inhibitor, full curve]	
CCOC(=O)c1c(C)n(Cc2ccccc2)c2ccc(O)cc12		inactive: 0%
O=C(O)c1ccccc1-c1c2cc(Br)c(=O)c(Br)c-2oc2c(Br)c(O)c(Br)cc12	inconclusive: 7.57 µM [inhibitor, partial curve, poor fit]	
Cc1noc(/C=C/N(C)C)c1S(=O)(=O)N1CCCC(C(=O)Nc2ccc(F)cc2F)C1 (stereo not drawn)	inconclusive: 10.4 µM [inhibitor, single point]	
CCOC(=O)C(NC(=O)c1ccc(OC)cc1)(Nc1cc(C)on1)C(F)(F)F (stereo not drawn)		inactive: 18.1%
COc1ccc(C2=NN(c3ccc(C=O)cc3)C(c3ccccc3)C2)cc1 (stereo not drawn)	inconclusive: 18.5 µM [inhibitor, single point]	
S=C(NCc1ccccn1)Nc1cccc(Cl)c1		inactive: 2.88%
C#CCOCCOCCOCCNc1nc(N2CCN(C(=O)[C@H](Cc3ccc(O)cc3)n3cc([C@@H](N)CC(C)C)nn3)CC2)nc(N2CCN(C(=O)[C@H](Cc3ccc(O)cc3)n3cc([C@@H](N)CC(C)C)nn3)CC2)n1	inconclusive: 10.4 µM [inhibitor, single point]	
CN(C)CCN(Cc1ccco1)C(=O)c1oc2ccccc2c1NC(=O)COc1ccccc1		inactive: 80.4%
CC(=O)Nc1ccccc1C(=O)OCc1ccc(C(=O)c2ccccc2)cc1		inactive: 76.6%
CCOc1ccc(-n2c(SCC(=O)Nc3ccccc3C)n[nH]c2=O)cc1	inconclusive: 9.28 µM [inhibitor, partial curve, poor fit]	
O=C(CC1C(=O)NCCN1Cc1cccc(F)c1F)NCCCC1CCCC1 (stereo not drawn)	inconclusive: 16.5 µM [inhibitor, partial curve, poor fit]	
CCOC(=O)CCCNC(=O)COc1ccccc1C#N	inconclusive: 18.5 µM [inhibitor, single point]	
COCCN(Cc1ccc(C)c(Br)c1)C(=O)Cn1cnc(S(=O)(=O)N2CCCC2)c1	inconclusive: 14.7 µM [inhibitor, single point]	
Cc1cc(/C=C2\Sc3ccccc3N2C)cc(C)[n+]1CC1CCCO1 (stereo not drawn)	inconclusive: 0.0828 µM [inhibitor, full curve, poor fit]	
CCOc1cc(C(=O)Nc2ccc(S(=O)(=O)Nc3cc(C)on3)cc2)cc(OCC)c1OCC	active: 10.4 µM	
N#CCSc1ccccc1NC(=O)COC(=O)Cc1c[nH]c2ccccc12	active: 6.57 µM	
O=C(COc1ccc(Br)cc1)N(Cc1ccco1)C1CCS(=O)(=O)C1 (stereo not drawn)	inconclusive: 13.1 µM [inhibitor, single point]	
CCOc1cc(/C=C(\C#N)C(=O)Nc2ccccn2)ccc1O		inactive: 13.6%
CC(C)COCC(O)CC(Cc1ccccc1)C(=O)NN (stereo not drawn)	inconclusive: 2.33 µM [inhibitor, single point]	
COc1ccc(N(C(=O)c2ccncc2)S(=O)(=O)c2ccc(OC)c(OC)c2)cc1	inconclusive: 0.415 µM [inhibitor, full curve, poor fit]	

Sorted by molecular weight (smallest number first): some entries from above.
SMILES	Potency	activity change, negative = inhibition
COCCNC(=S)N1CCN(C/C=C/c2ccccc2)CC1	inconclusive: 0.522 µM [inhibitor, full curve, poor fit]	
Cc1cc(/C=C2\Sc3ccccc3N2C)cc(C)[n+]1CC1CCCO1 (stereo not drawn)	inconclusive: 0.0828 µM [inhibitor, full curve, poor fit]	
CCOc1ccc(-n2c(SCC(=O)Nc3ccccc3C)n[nH]c2=O)cc1	inconclusive: 9.28 µM [inhibitor, partial curve, poor fit]	

(cont.)

SMILES	Potency	activity change, negative = inhibition
CC1CCc2c(nc3nc[nH]n3c2=O)C1 (stereo not drawn)	active: 1.17 µM	
CCCOc1ccc(/C=N/NC(=O)c2ccc3c(c2)OCO3)c(OCCC)c1	inconclusive: 9.28 µM [inhibitor, partial curve]	
CC(C)CCNC(=O)CCn1nc(-c2ccccc2)ccc1=O	inconclusive: 10.4 µM [inhibitor, single point]	
COC(=O)CSc1nccc(-c2ccc(F)cc2)c1C#N	inconclusive: 4.15 µM [inhibitor, partial curve, poor fit]	
O=C(C1COc2ccccc2O1)N1CCCCC1 (stereo not drawn)		inactive: -7.05%
COc1ccc(N(CC(=O)NCCc2ccc(C)cc2)S(=O)(=O)c2c(C)noc2C)cc1		inactive: 19.4%
CCN(CC)S(=O)(=O)c1cc(NC(=O)NCCCl)ccc1C	inconclusive: 0.037 µM [inhibitor, full curve, poor fit]	
COc1ccc(S(=O)NC2CCCCC2)c(OC)c1C (stereo not drawn)		inactive: 14.3%
COc1ccc(CNc2nccs2)cc1OC	active: 11.7 µM	
CC(C)(C)NC(=O)COC(=O)c1c2c(nc3ccccc13)CCC2	active: 5.22 µM	
COC(C(=O)NNC(=O)Cc1ccc(Cl)cc1)c1ccccc1 (stereo not drawn)	inconclusive: 3.29 µM [inhibitor, partial curve, poor fit]	
Cc1cc(C(=O)NCc2cccs2)n(-c2ccccc2)n1	inconclusive: 4.65 µM [inhibitor, partial curve, poor fit]	
O=C(NCCc1ccccc1)C1CCCN1C(=O)Nc1ccccc1 (stereo not drawn)	inconclusive: 13.1 µM [inhibitor, single point]	
CCCCNC(=O)Nc1ccc(C2SCCS2)cc1	inconclusive: 0.294 µM [inhibitor, partial curve, poor fit]	
COc1cc([N+](=O)[O-])ccc1NC(=O)NN1CCN(C)CC1		inactive: -18.9%
CSc1ccc(C(=O)c2[nH]c(=O)[nH]c2C)cc1	inactive and inconclusive: 8.49 µM [inhibitor, partial curve, poor fit]	
Cc1cccc(Nc2c(F)c(F)c(F)c(F)c2C(=O)O)c1	inconclusive: 5.22 µM [inhibitor, partial curve]	
Cn1c2ccccc2c(=O)c2cc(C#Cc3ccsc3)ccc21	inconclusive: 9.28 µM [inhibitor, single point]	
CCOc1ccccc1NC(=O)Cn1ncc2ccc([N+](=O)[O-])cc21		inactive: 0.0479%
CC(C)(C)c1ccc(C(=O)O/N=C(\N)c2ccccc2)cc1	inconclusive: 13.1 µM [inhibitor, partial curve]	
C=CC[n+]1c(C)csc1Nc1cccc(Br)c1		inactive: 19.6%
CCC(C)(C(=O)NC1CCCCC1)N(C(=O)c1ccccn1)c1ccccc1 (stereo not drawn)	inconclusive: 11.7 µM [inhibitor, single point]	
COc1ccccc1C(=O)COC(=O)c1ccc(N(C)C)cc1		inactive: 338%
COc1ccccc1N(CN1CCCC1=O)C(=O)COc1ccccc1	inconclusive: 14.7 µM [inhibitor, single point]	
CCCc1ccc(-c2csc(NC(=O)Cc3cccs3)n2)cc1	active: 11.7 µM	

Entries of single compounds, looked up by structure.
CCOc1ccccc1NC(=O)Cn1ncc2ccc([N+](=O)[O-])cc21 as listed: activity change, negative = inhibition: inactive: 0.0479%
CC(C)CCNC(=O)CCn1nc(-c2ccccc2)ccc1=O as listed: Potency: inconclusive: 10.4 µM [inhibitor, single point]
Cn1c2ccccc2c(=O)c2cc(C#Cc3ccsc3)ccc21 as listed: Potency: inconclusive: 9.28 µM [inhibitor, single point]

(continued)

SMILES	Potency	activity change, negative = inhibition
COc1ccc(NC(=O)C2CCCCN2N)cc1OC (stereo not drawn)		inactive: -14.6%
CCOc1ccccc1NC(=O)COc1cccc(-n2cnnn2)c1	inconclusive: 11.7 µM [inhibitor, partial curve, poor fit]	
CC(C)(C)Cc1cc(N)on1		inactive: 6.85%
O=c1ccc(-c2ccc([N+](=O)[O-])cc2)nn1-c1ccccc1		inactive: -16.1%
Cc1cnc2cc(Cl)c(Cl)cc2n1	inconclusive: 0.415 µM [inhibitor, partial curve, poor fit]	
N#Cc1nc(-c2cccc3ccccc23)oc1NCC1CCCO1 (stereo not drawn)		inactive: 3.97%
COc1ccc(C2CC(c3cccs3)=NN2c2nc(C)c(C(C)=O)s2)cc1OC (stereo not drawn)	inconclusive: 11.7 µM [inhibitor, single point]	
COC(=O)CN1C2=NCCCN2c2ccccc21		inactive: 80.3%
C=CC1CN2CCC1CC2C(OC(=O)OCC)c1ccnc2ccc(OC)cc12 (stereo not drawn)	active: 0.757 µM	
Cc1ccc(C(=O)O/N=C(/c2nonc2N)N(C)C)cc1	inconclusive: 0.37 µM [inhibitor, full curve, poor fit]	
O=C(Cn1cccn1)N1CCCC(N2CCN(c3cccc(C(F)(F)F)c3)CC2)C1 (stereo not drawn)		inactive: -1.13%
Cc1ccc(NC(=O)C(=O)NCCCN2CC(C(=O)O)CC2=O)cc1 (stereo not drawn)		inactive: -0.809%
Cc1ccc(Cl)c(NC(=O)CCl)c1Cl	active: 11.7 µM	
COc1ccccc1C(CNC(=O)c1ccc(S(=O)(=O)NCc2ccco2)cc1)N(C)C (stereo not drawn)	inconclusive: 13.1 µM [inhibitor, single point]	
CCC(C)[C@H](NC(=O)N1CC(=O)Nc2ccccc21)C(=O)N[C@@H](C(=O)O)c1ccccc1 (stereo partly drawn)	inconclusive: 18.5 µM [inhibitor, single point]	
COc1ccc(C(=O)Nc2ccc(C)c(S(=O)(=O)N3CCCCCC3)c2)cc1		inactive: 0%
Cc1cc(C#N)c(C)n1-c1cc(C(F)(F)F)ccc1N1CCOCC1	inconclusive: 18.5 µM [inhibitor, single point]	
COc1ccc(CCn2c(N)c(C#N)c3nc4ccccc4nc32)cc1OC		inactive: 56.2%
Cn1c(=O)[nH]c(=O)c2c1nc(NCc1ccccc1)n2CC(O)c1ccccc1 (stereo not drawn)	inconclusive: 18.5 µM [inhibitor, single point]	
COc1ccc(CCNC(=O)CN2C(=O)NC(Cc3c[nH]c4ccccc34)C2=O)cc1 (stereo not drawn)		inactive: 12.2%
O=C(Nc1ccc(N2CCCC2)c(Cl)c1)c1ccc([N+](=O)[O-])o1	inconclusive: 14.7 µM [inhibitor, partial curve, poor fit]	
COc1ccc(CCN2C(=O)NC(NC(=O)CCc3ccccc3)(C(F)(F)F)C2=O)cc1OC (stereo not drawn)	inconclusive: 0.0828 µM [inhibitor, full curve, poor fit]	
CN1CCN(CCCNC(=O)c2ccc(NC(=O)C3=CSCCO3)cc2)CC1	inconclusive: 18.5 µM [inhibitor, partial curve, poor fit]	
